## Assay results

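Genome-wide siRNA knockdown in TC32 Ewing sarcoma cells, comparing luciferase light from an NR0B1-promoter reporter with a CMV-promoter reporter 48 hours after transfection. Each siRNA was applied at 20 nM. A z-score of the log NR0B1-over-CMV signal, less the median of siRNAs with the same seed; more negative means a stronger specific loss of the NR0B1 reporter.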

The strongest results of the screen are mostly left out here. Sequences are the guide (antisense) strand, without overhang.

siRNA | target gene | seed-corrected z-score
GUAGCUUUAGUGAUGAUUC | LOC643201 | 0.9913
UCGUUUUUCUCGGUUUUGC | HSD11B1L | 0.3678
UUAGGUCAGCAGCUAAACC | STRN3 | -0.2356
UUUCUAUCCUGAUUCUAUG | ICT1 | 0.3401
AACUUGAACCCACACCUCC | PVRIG | 1.127
ACAGCUAUCAUAAAAGUUG | STEAP1 | 0.943
AAAGUCUGCCCUCUUAUCC | KLHDC8B | -0.7819
UCAGGUAAGCCUUUGGACC | WNT8B | 0.2813
UGAGGAAUCGAGGCAUCUC | LY6G6F | 0.7517
UUUUCACUAAGGUUCCAUC | LINC00518 | -0.3354
UUUAGAUCUUCUUUCACUG | RAB23 | -0.3495
UCCUCGUUCAGGAAUCUUC | SELP | 0.789
UUACAUCUCUGGGUCUUCA | PTN | 0.2155
UCAGCCUCAAGGGAUCUCC | GPANK1 | 1.064
UAUUGUUGAGCUAGUUUUC | PSMA2 | 0.3482
UUUAAGUCUAAGACCUUCU | TTC32 | -1.237
AAACUUAUUCGAGUUGUCC | LOC643997 | -0.034
UUUGAUGCGUUUGCCCUGG | NPAS1 | -0.7949
UCUGGUUCUUCAUAUAAGG | MYCBP | -1.594
UAUCAUAAAAACAGGGCCG | MTHFD1 | -1.587
AGAGGGUUCACUGAGCAUG | KRTAP12-1 | -0.4558
UUCAGCAUUAGUAAGGUUC | SLF1 | -0.318
UCUCCAAUCGGUGAUCUUC | TXNIP | 0.352
AAGCUGUUCAAUAUCGUUC | CDK20 | 0.1026
UCCACAAACUGGAUAGUGC | TUBA3E | -0.08002
UGAUGUUAUAUCCGAUUCC | GBA | 0.3781
UACUGGUGCAGGAACUUGC | CPSF4L | 0.1299
UCAGAAACAAUGUCUAUGA | LOC650024 | 0.1912
UGUUCCGUAAGAUUUGAGG | ZNF675 | -0.3798
UUCCCUGUCUUCGGGUUGC | ZNF226 | 0.008655
UUUCGUGUCACAACCUCUG | PAK1 | 0.2722
UUAGUAAAUCGGGAACACU | OLIG1 | -0.4073
UAGGUAACUAAUACCUCCC | ANO5 | -0.007464
AACUCUUUUAAGGUGUUGC | CTF1 | 0.6446
UGCGUUUCAUCUGUCGAGG | MAP3K4 | 0.5912
UCAUGUUGCACUCUAAGUG | SAMD15 | -1.501
AAUGUGGAAAGGCUCCUGC | SPATA2L | -0.4073
UUUUCCAUAGGGAUCUUUC | CAMK2G | -0.4005
UUGAGUACCAUUAAGGCUC | MDC1 | 1.278
UCUUGAUAUAUGGUGUUAC | SNTB2 | 0.4346
UUUUAGGUUUUUAGUAGUG | EFHD2 | 0.9728
AAAGAUGUCACAUAUGAAC | ZFP36L1 | 0.7772
UUGAGAGUGAGGGACAUGC | BRINP1 | 1.302
UUAUUAUCUUCUUCCAUGU | ASCC3 | 0.04831
UUCCUUAGUCUUAAAAGCC | TRIM69 | 0.046
UUGGAUUCUAUGUUUAGAC | TMOD2 | 1.911
UAUCCAUCAGGCUGAAAGC | ITPA | -0.4403

The last 5 entries again:

siRNA,target gene,seed-corrected z-score
UUGAGAGUGAGGGACAUGC,BRINP1,1.302
UUAUUAUCUUCUUCCAUGU,ASCC3,0.04831
UUCCUUAGUCUUAAAAGCC,TRIM69,0.046
UUGGAUUCUAUGUUUAGAC,TMOD2,1.911
UAUCCAUCAGGCUGAAAGC,ITPA,-0.4403

Source: PubChem BioAssay AID1159506 (NCATS, 2015).